Weaker means in comparison with the reference protein, sequence or condition of that experiment.
Molecular target: EhRNaseIII194 (Entamoeba histolytica) (UniProt C4LU64)
Experiment: EMSA
Conditions: 5 mM Mg2+, low affinity (shift in lane 8, 1e-3 M); EMSA (1x): 30 mM Tris-HCl pH 7.5, 30 mM NaCl, 5 mM MgCl2, 1 mM DTT, 0.1 mM EDTA, 5% glycerol; room temperature 10 min then ice 20 min; 6% native PAGE; recombinant protein; protein details: His-Sumo removed by Ulp1

“GGGAGAAACGCGGCCUCUUCUUAUUUAUGGCGACAUGUUGUGCCUCUCCC / GGGAGAGGCACAACAUGUCGCCAUAAAUAAGAAGAGGCCGCGUUUCUCCC [RNA50]”: binds more weakly.

From article PMC5357909
